# Assay results reported in PubChem BioAssay AID2685 (National Center for Advancing Translational Sciences (NCATS), 2010).
# This is one part of the list. The main result of the screen is listed elsewhere. These columns were measured beside it and carry no call. The list favours compounds with an active or inconclusive main result. Words in brackets tell the shape of the fitted curve; partial curves, single points and poor fits give uncertain potencies.
# Assay: qHTS Assay for Lipid Storage Modulators in Drosophila S3 Cells;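 on cell number change: cells counted by Cell Tracker Red CMTPX staining in the red channel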
# Conditions: BODIPY lipid droplet fluorescence, 18-24 h; for cell number change: measured here: cell count max response, cells fed with added oleic acid
# Procedure, shortened: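 Laser-scanning cytometry quantifies lipid droplet accumulation (500–530 nm total intensity; droplet/cell object ratio) in oleic acid-fed (400 uM added) Drosophila S3 cells treated with a concentration series. 20 uM Triacsin C defined 100% inhibition.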
# [1] = measured here: cell number channel AC50, cells fed with added oleic acid
# [2] = measured here: lipid fluorescence (Fed channel) AC50, cells fed with added oleic acid
Structure (SMILES),cell number change,AC50 [1],AC50 [2]
Cc1cccc(N2CCN(C(=O)c3ccc(Cl)c(S(=O)(=O)NCc4ccco4)c3)CC2)c1C,-43.7%,"0.92 µM [falling, full curve]","0.651 µM [falling, full curve]"
COc1cc(C(=O)N(Cc2ccc(N(C)C)cc2)C2CCS(=O)(=O)C2)cc(OC)c1OC (centres undefined),-8.64%,–,–
Nn1c(COc2ccccc2)nnc1SC(F)F,-9.79%,–,"0.82 µM [falling, full curve]"
COc1cc(C(=O)OCC(=O)c2c[nH]c3ccccc23)ccc1OCC(=O)N1CCOCC1,-19.4%,–,"23.1 µM [rising, single point]"
Cc1ccccc1S(=O)(=O)N1[C@@H](c2ccccc2)C(C(=O)O)=CC[C@H]1c1ccc(Cl)cc1,-15.6%,"1.46 µM [falling, partial curve]","29.1 µM [falling, single point]"
COc1ccc(/C(N)=N/OC(=O)c2ccc(Br)o2)cc1,40%,"23.1 µM [rising, single point]",–
COc1ccccc1N(C(=O)c1ccco1)C(C(=O)NC1CCCC1)c1ccc(N2CCOCC2)cc1 (centres undefined),3.85%,–,–
COc1cc(/C=C/c2ccc3cccc(O)c3n2)cc(OC)c1OC,2.84%,–,–
COc1ccc(N2CC(O)(c3ccc(F)cc3)[N+]3=C2CCCC3)cc1 (centres undefined),-31.9%,"7.31 µM [falling, partial curve]","6.51 µM [falling, partial curve]"
CCCC[n+]1ccn(-c2nc3ccccc3nc2[N-]S(=O)(=O)c2ccccc2)c1,59.9%,"14.6 µM [rising, partial curve, poor fit]","29.1 µM [rising, single point]"
C=CCn1c(O)c(N=NC(=S)Nc2ccc(OC)cc2)c2ccccc21,-59.2%,"29.1 µM [falling, single point]","29.1 µM [falling, single point]"
Cc1ccc2c(c1)cc(CN(Cc1ccc3c(c1)OCO3)C(=O)c1ccccc1)c1nnnn12,-27.5%,–,"13 µM [falling, partial curve]"
Cc1ccc(NC(=O)CNC(=O)c2cccs2)c(O)c1,2.77%,–,"18.4 µM [falling, single point]"
COc1ccccc1C(=O)NC(CCSC)C(=O)N1CCC(Cc2ccccc2)CC1 (centres undefined),12.5%,–,–
NC(=O)c1c(NC(=O)C2COc3ccccc3O2)sc2c1CCN(Cc1ccccc1)C2 (centres undefined),14%,"0.00517 µM [rising, full curve, poor fit]","0.00461 µM [rising, full curve, poor fit]"
Cc1cccc(NC(=O)c2ccc(C(=O)c3ccccc3)cc2)n1,-13.9%,–,"1.3 µM [falling, partial curve]"
CC(=O)Cn1ncc(Br)c(Br)c1=O,-29%,–,"5.8 µM [falling, partial curve]"
S=C(N/N=C/c1ccc2c(c1)OCO2)NC1CC2CCC1C2 (centres undefined),6.01%,"6.51 µM [falling, single point]","6.51 µM [falling, single point]"
O=C(CC1C(=O)NCCN1Cc1cccc(C(F)(F)F)c1)NC1CCOCC1 (centres undefined),-6.36%,–,–
CN1/C(=C\C(=O)c2cccc([N+](=O)[O-])c2)Sc2ccccc21,–,–,"2.06 µM [falling, partial curve]"
CCCc1cc(-c2nc(N)ncc2-c2csc(C)n2)c(O)cc1OC,-7.78%,–,–
CCN1CCN(C(=O)c2cc3ccc(OC)cc3[nH]2)CC1,47.9%,"2.91 µM [falling, single point]","29.1 µM [rising, single point]"
CCN1CCN(c2ccc(NC(=O)c3ccc4c(c3)[nH]c(=O)n4Cc3ccc(F)cc3)cc2)CC1,2.71%,–,"18.4 µM [rising, partial curve, poor fit]"
CCCNCC1C(Oc2ccc(Cl)cc2Cl)C(=O)N1c1cccc(C)c1C (centres undefined),-73.7%,"23.1 µM [falling, single point]","29.1 µM [falling, single point]"
CN(Cc1ccc(Cl)c(Cl)c1)C(=O)C1=CC=CN2CCS(=O)(=O)N=C12,6.33%,–,"0.517 µM [falling, single point]"
CSC1=N/C(=C\c2ccccc2)C(=O)N1C,3.74%,–,–
CCn1cc(/C=N\NC(=O)c2cc(-c3ccccc3OC)nc3ccccc23)c(C)n1,33.6%,"8.2 µM [rising, partial curve]","6.51 µM [rising, partial curve]"
CSc1nc2[nH]c3c(c2c2nnnn12)CCCC3,23.4%,"0.411 µM [rising, full curve, poor fit]","0.0326 µM [rising, full curve, poor fit]"

# Sorted by number of heavy atoms (ascending): 7 of the compounds above.
Structure (SMILES),cell number change,AC50 [1],AC50 [2]
CSC1=N/C(=C\c2ccccc2)C(=O)N1C,3.74%,–,–
CSc1nc2[nH]c3c(c2c2nnnn12)CCCC3,23.4%,"0.411 µM [rising, full curve, poor fit]","0.0326 µM [rising, full curve, poor fit]"
COc1ccc(/C(N)=N/OC(=O)c2ccc(Br)o2)cc1,40%,"23.1 µM [rising, single point]",–
CN1/C(=C\C(=O)c2cccc([N+](=O)[O-])c2)Sc2ccccc21,–,–,"2.06 µM [falling, partial curve]"
C=CCn1c(O)c(N=NC(=S)Nc2ccc(OC)cc2)c2ccccc21,-59.2%,"29.1 µM [falling, single point]","29.1 µM [falling, single point]"
COc1ccccc1C(=O)NC(CCSC)C(=O)N1CCC(Cc2ccccc2)CC1 (centres undefined),12.5%,–,–
NC(=O)c1c(NC(=O)C2COc3ccccc3O2)sc2c1CCN(Cc1ccccc1)C2 (centres undefined),14%,"0.00517 µM [rising, full curve, poor fit]","0.00461 µM [rising, full curve, poor fit]"
